Experiment [1] has as its target HA-HIF1A (UniProt Q16665). Kind of experiment: co-IP.
Experiment [2] has as its target HA-HIF1A (UniProt Q16665). Put plainly: co-IP. This is another data set of the same source.

The chains behind the UniProt entries cited, without tags or fusion partners.
UniProt Q16665, whole entry: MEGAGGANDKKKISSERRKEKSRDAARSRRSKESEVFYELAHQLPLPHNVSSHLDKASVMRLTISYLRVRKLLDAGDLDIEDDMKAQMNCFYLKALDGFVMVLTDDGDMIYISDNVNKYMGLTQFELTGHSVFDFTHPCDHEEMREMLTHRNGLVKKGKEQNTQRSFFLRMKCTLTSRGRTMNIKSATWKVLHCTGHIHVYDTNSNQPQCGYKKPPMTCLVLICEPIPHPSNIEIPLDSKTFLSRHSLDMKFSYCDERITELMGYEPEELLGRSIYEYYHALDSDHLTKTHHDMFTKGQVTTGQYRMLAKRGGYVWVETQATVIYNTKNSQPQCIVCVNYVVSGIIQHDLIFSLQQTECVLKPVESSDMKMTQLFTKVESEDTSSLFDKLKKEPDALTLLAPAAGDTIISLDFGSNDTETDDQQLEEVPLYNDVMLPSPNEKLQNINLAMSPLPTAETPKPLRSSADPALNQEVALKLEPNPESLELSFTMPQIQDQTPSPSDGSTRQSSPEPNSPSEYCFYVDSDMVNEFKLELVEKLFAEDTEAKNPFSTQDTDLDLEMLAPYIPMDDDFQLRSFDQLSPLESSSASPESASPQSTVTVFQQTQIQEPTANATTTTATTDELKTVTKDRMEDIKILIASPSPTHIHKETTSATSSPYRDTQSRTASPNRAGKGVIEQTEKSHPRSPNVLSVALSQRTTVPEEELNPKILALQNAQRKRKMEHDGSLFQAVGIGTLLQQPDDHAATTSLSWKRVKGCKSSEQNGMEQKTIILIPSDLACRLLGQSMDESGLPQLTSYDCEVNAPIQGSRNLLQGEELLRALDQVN
UniProt P62191, whole entry: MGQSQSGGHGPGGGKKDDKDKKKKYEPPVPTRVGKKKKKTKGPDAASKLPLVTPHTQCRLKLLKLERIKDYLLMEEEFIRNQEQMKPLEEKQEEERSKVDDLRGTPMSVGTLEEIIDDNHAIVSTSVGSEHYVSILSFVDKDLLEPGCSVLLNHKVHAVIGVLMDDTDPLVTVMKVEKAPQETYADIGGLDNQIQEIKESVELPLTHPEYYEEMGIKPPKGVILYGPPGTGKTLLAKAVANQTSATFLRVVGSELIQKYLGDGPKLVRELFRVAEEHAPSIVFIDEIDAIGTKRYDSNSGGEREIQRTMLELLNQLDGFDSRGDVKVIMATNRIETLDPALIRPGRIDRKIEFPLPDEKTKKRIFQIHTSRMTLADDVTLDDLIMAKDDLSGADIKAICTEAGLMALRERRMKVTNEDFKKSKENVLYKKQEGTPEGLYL
UniProt Q13200, whole entry: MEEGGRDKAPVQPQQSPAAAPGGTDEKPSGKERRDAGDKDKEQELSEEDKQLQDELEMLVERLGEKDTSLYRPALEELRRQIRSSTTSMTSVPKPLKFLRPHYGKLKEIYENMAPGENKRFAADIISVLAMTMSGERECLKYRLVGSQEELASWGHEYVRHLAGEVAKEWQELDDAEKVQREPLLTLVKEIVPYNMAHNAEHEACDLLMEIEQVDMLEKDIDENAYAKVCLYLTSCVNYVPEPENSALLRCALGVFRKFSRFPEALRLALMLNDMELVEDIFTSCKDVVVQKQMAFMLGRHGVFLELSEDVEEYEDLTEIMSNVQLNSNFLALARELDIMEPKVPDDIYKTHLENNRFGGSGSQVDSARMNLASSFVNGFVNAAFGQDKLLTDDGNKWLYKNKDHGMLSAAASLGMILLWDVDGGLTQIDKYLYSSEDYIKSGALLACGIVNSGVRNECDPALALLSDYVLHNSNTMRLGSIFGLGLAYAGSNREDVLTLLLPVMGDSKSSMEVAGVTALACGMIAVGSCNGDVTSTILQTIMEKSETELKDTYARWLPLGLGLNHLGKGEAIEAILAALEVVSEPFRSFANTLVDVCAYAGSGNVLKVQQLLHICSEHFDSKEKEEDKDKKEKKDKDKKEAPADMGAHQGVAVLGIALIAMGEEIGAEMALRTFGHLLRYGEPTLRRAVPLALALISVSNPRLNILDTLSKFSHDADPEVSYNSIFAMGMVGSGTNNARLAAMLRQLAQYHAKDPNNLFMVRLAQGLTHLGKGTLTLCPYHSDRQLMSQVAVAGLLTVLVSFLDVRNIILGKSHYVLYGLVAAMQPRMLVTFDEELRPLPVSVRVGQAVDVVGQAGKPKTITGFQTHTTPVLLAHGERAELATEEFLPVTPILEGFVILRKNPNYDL

Where two headings read alike, the source gives them in different places. No constants are given. Whether binding was seen depends on the method and setting. Binding seen in cells or lysates may run through a third protein. Some binding calls cover weakened binding; strength is not graded here. For some of these results: Tags and fused reporters may be left off the sequences shown.

As for PSMC1 (from UniProt P62191 1-440), the binding entry in the experiment with HA-HIF1A [1] is given as “binds”.

Turning to PSMD2 (from UniProt Q13200 1-908), the binding entry with HA-HIF1A [1] is reported as “binds”.

B1: Flag-UBFD1 (protein, UniProt O14562 1-309)
chain: MAAAGAPDGMEEPGMDTEAETVATEAPARPVNCLEAEAAAGAAAEDSGAARGSLQPAPAQPPGDPAAQASVSNGEDAGGGAGRELVDLKIIWNKTKHDVKFPLDSTGSELKQKIHSITGLPPAMQKVMYKGLVPEDKTLREIKVTSGAKIMVVGSTINDVLAVNTPKDAAQQDAKAEENKKEPLCRQKQHRKVLDKGKPEDVMPSVKGAQERLPTVPLSGMYNKSGGKVRLTFKLEQDQLWIGTKERTEKLPMGSIKNVVSEPIEGHEDYHMMAFQLGPTEASYYWVYWVPTQYVDAIKDTVLGKWQYF
Regarding B1, in the experiment with HA-HIF1A [2], the binding entry is “binds”.

B2: UBFD1 (endogenous) (protein, UniProt O14562 1-309)
chain: MAAAGAPDGMEEPGMDTEAETVATEAPARPVNCLEAEAAAGAAAEDSGAARGSLQPAPAQPPGDPAAQASVSNGEDAGGGAGRELVDLKIIWNKTKHDVKFPLDSTGSELKQKIHSITGLPPAMQKVMYKGLVPEDKTLREIKVTSGAKIMVVGSTINDVLAVNTPKDAAQQDAKAEENKKEPLCRQKQHRKVLDKGKPEDVMPSVKGAQERLPTVPLSGMYNKSGGKVRLTFKLEQDQLWIGTKERTEKLPMGSIKNVVSEPIEGHEDYHMMAFQLGPTEASYYWVYWVPTQYVDAIKDTVLGKWQYF
Consider B2, for which, in the experiment with HA-HIF1A [2], the binding result is reported as “binds”.

The values are drawn from article doi:10.1101/2025.06.18.660436.
